In patent US7064139B2, “Method for treating retroviral infections” (Uniroyal Chemical Company, Inc., priority 2001, dated 2006):
At least one compound was matched to its structure with a doubt left.

System: HIV-2 (ROD)
Test: Inhibition of HIV-2 syncytium formation in CEM cells
Type: cell-based
Settings: day four post infection
Description: The cell type used to determine activity of the compounds of the invention herein, i.e., the test compounds, against HIV was human T-lymphoblast (CEM) cells obtained from the American Tissue Cell Culture Collection (Rockville, Md.). HIV-1 (IIIB) was originally obtained from the culture of persistently HIV-1 infected H9 cells and was provided by R. C. Gallo and M. Popovic (National Cancer Institute, National Institutes of Health, Bethesda, Md.). HIV-2 (ROD) was originally obtained from L. M. Montagnier (Pasteur Institute, Paris, France).
To determine the antiviral activity of the test compounds, CEM cells were suspended at a cell density of approximately 300,000 cells per ml of culture medium and infected with approximately 100 CCID50 (100 CCID50 being the 50% cell culture infective dose) of HIV-1 (IIIB) or HIV-2 (ROD)). Then 100 μl of the infected cell suspensions was added to 200 μl micro titer plate wells containing 100 μl of appropriate serial (5-fold) dilutions of the test compounds. The inhibitory effect of the test compounds on HIV-1 or HIV-2 syncytium formation in CEM cells was examined microscopically on day four post infection.
In these cases, the percent protection of the cells against virus-induced cytopathicity by the test compounds at the indicated compound concentration in the previous column is given.

## O=S(=O)(Cc1ccc2c(c1)OCO2)c1cccc[n+]1[O-] [Compound 39]
  EC50 (ug/ml) HIV-2: J5.5 ug/ml
